In USRE35517E, “Method, compositions, and compounds for modulating brain excitability” (priority 1992, dated 1997):

System: GABA/benzodiazepine receptor-chloride ionopore complex (GBR complex)
Assay: Dissociation kinetics of [35S]TBPS in rat cerebral cortical membranes
Format: binding
Method: An assay was performed to determine the effect of pentobarbital on the dissociation kinetics of [^35 S]TBPS in rat cerebral cortical membranes. This assay was performed in accordance with the procedures outlined above. […] Dissociation of bound [^35 ]TBPS was initiated by 2 micromolar TBPS in all cases.

[1] = [35S]TBPS dissociation, rat cortex, 30 nM Na pentobarbital, 300 nM alphaxalone, 20 nM a-OH-DHP
[2] = [35S]TBPS dissociation, rat cortex, Na pentobarbital, 300 nM alphaxalone, 20 nM a-OH-DHP

**Q.** Which “biphasic dissociation mechanism of [35S]TBPS” value (FIGS. 2A, 2B, pentobarbital 30 micromolar, alphaxalone 300 nanomolar, 5-alpha-pregnan-3-alpha-hydroxy-20-one 20 nanomolar) does the source give for CC(=O)[C@H]1CC[C@H]2[C@@H]3CC[C@H]4C[C@H](O)CC[C@]4(C)[C@H]3C(=O)C[C@]12C [ALPHAXALONE, 5α-PREGNAN-3α-OL-11.20-DIONE] here?
**A.** The value was “absent”.

**Q.** And the “t1/2, R (rapidly dissociating component)” value [1]?
**A.** The value was 4.9 ± 1.

**Q.** What about the “t1/2, S (slowly dissociating component)” value [1] of the same molecule?
**A.** The value was 67 ± 12.

**Q.** And the “k-1, R (rapidly dissociating component)” value [2]?
**A.** The value was 0.180 ± 0.040 min⁻¹.

**Q.** What about the “k-1, S (slowly dissociating component)” value [2] of the same molecule?
**A.** The value was 0.0120 ± 0.003 min⁻¹.

**Q.** What about the “Total percentage of specific sites, R” value (rapidly dissociating component, Na pentobarbital (**P < 0.01 vs control), 300 nM alphaxalone, 20 nM a-OH-DHP) of the same molecule?
**A.** The value was 34 ± 5%.

**Q.** What about the “influence on the dissociation kinetics of [35S]TBPS binding” value (rat cerebral cortex) of the same molecule?
**A.** The value was “do not influence the dissociation kinetics”.

**Q.** And the “Total percentage of specific sites, S” value (slowly dissociating component, Na pentobarbital (*P < 0.05 vs control), 300 nM alphaxalone, 20 nM a-OH-DHP)?
**A.** The value was 73 ± 4%.
